Measured values as given in PubChem BioAssay AID493014 (National Center for Advancing Translational Sciences (NCATS), 2011).
In all, about 340,000 compounds went through this assay and about 170 (0.05%) were called active. Inconclusive means that the source gave no clear call. Such entries were picked first, then a sample of the others. The call rests on the fitted dose curve; in most records, active means well fitted inhibition curve with a large enough effect in the signal ratio, with a control signal flat (not every such curve was filed as active); inconclusive means small, poorly fitted or top-dose-only effect, or effect the other way, or a change in a side signal; inactive means flat fitted curve, though single readings scatter; the % refers to the signal ratio. A potency beside an inconclusive call is a rough fit, not a confirmed value.
Potency means the concentration at half of the fitted maximal effect.

Assay: qHTS Assay to Find Inhibitors of Chronic Active B-Cell Receptor Signaling;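 on activity change, negative = inhibition: plate controls were basal doxycycline-induced cells for no effect and cells given 10 µM MG132 for full effect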
Settings: ABC-DLBCL IkBa-CBG/CBR reporter, luminescence ratio (green luciferase fused to IkBa over red control in TMD8 lymphoma cells), 4 h; activity change, negative = inhibition: at 46.1 µM (top of the series) unless noted
Outline: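 TMD8 ABC-DLBCL cells carrying doxycycline-inducible green luciferase fused to IkappaBalpha plus unfused red luciferase were exposed to compounds (up to 46 uM) for 4 hrs at 37C. Activity came from the overlap-corrected green/red luminescence ratio.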
With `COc1ccnc(CSC(N)=Nc2ccc(F)cc2)c1` the Potency was inconclusive: 29.1 µM [falling, single point]. In the case of `COc1cccc(CNC(C)(C)CO)c1OCc1ccc(Cl)cc1`, the “activity change, negative = inhibition” value is reported as inactive: -2.98%. With `COc1ccc(C(=O)c2c(NC(C)=O)sc3c2CCN(C(=O)OC(C)(C)C)C3)cc1` the activity change, negative = inhibition was inconclusive: -18.5%. For `CCN(CC)CCn1c(=S)[nH]c2cc(Cl)ccc2c1=O`, the “activity change, negative = inhibition” value was inactive: 0.717%. With `O=c1[nH]c2ccc(Cl)cc2c(-c2ccccc2)c1SC(=S)N1CCOCC1` the activity change, negative = inhibition was inconclusive: -4.62%. With `O=C(COC(=O)Cn1cnc2ccccc21)NCCC1=CCCCC1` the activity change, negative = inhibition was inconclusive: -1.54%. With `Cc1nn(-c2ccccc2)c(N)c1N=Nc1cccnc1` the Potency was inconclusive: 35.5 µM [falling, single point]. With `CSCCC(NC(=O)COc1ccccc1)C(=O)OCC(=O)c1ccccc1` (centres undefined) the “activity change, negative = inhibition” value was inactive: -5.85%. In the case of `COCCn1c(C)cc(C(=O)COC(=O)/C=C/c2ccc(OC)cc2OC)c1C`, the activity change, negative = inhibition is reported as inconclusive: 2.41%. In the case of `Cc1cc(NC(=O)CSc2nnc(C(F)(F)F)n2C)no1`, the “activity change, negative = inhibition” value is reported as inactive: 1.94%. With `CCCOc1ccc(C(=O)NNC(=S)NC(=O)c2ccco2)cc1` the Potency was inconclusive: 22.4 µM [falling, partial curve]. In the case of `O=C(c1ccco1)N(Cc1ccco1)c1ccc(O)cc1`, the “activity change, negative = inhibition” value is reported as inactive: -8.01%. With `COc1ccccc1NC(=O)Nc1nc(CC(=O)N2CCN(c3ccccc3OC)CC2)cs1` the Potency was inconclusive: 29.1 µM [falling, single point]. With `Cc1ccc(OCCC(=O)OCC(=O)Nc2cc(C)cc(C)c2)cc1` the activity change, negative = inhibition was inconclusive: -1.4%. In the case of `CCC(=O)Nc1c(-c2ccccc2)c(=O)c2ccccc2n1C`, the Potency is reported as inconclusive: 14.1 µM [falling, partial curve]. For `Cc1cc(C)n(-c2nc3ccccc3c(=O)n2OCC(C)C)n1`, the activity change, negative = inhibition was inconclusive: -1.68%. In the case of `O=C(Nc1cccc(S(=O)(=O)N2CCCC2)c1)c1ccco1`, the “activity change, negative = inhibition” value is reported as inactive: -4.03%. In the case of `CC(C)CCc1noc(CN2CCN(CC(=O)NC(C)C)CC2)n1`, the “activity change, negative = inhibition” value is reported as inactive: -3.33%. For `O=C(c1cc2n(n1)C(C(F)(F)F)CC(c1ccc(Cl)cc1)N2)N1CCCC1` (centres undefined), the activity change, negative = inhibition was inconclusive: 8.87%. With `Nc1ccc2nc3c(c(Cl)c2c1)CCCC3` the “activity change, negative = inhibition” value was inactive: 8.38%. In the case of `CCOC(=O)Oc1c(OC)cc(C(=O)O[C@@H]2C[C@@H]3CN4CCc5c([nH]c6cc(OC)ccc56)[C@H]4C[C@@H]3[C@H](C(=O)OC)[C@H]2OC)cc1OC`, the activity change, negative = inhibition is reported as inconclusive: -9.54%. For `Cc1ccc(CSc2nc3ccccc3c(=O)[nH]2)cc1`, the activity change, negative = inhibition was inconclusive: -5.98%. In the case of `CCOC(=O)c1c(NC(=O)Cn2nc(C(F)F)cc2C(F)F)sc(C)c1C`, the Potency is reported as inconclusive: 14.6 µM [rising, partial curve]. For `Cn1c(SCC(=O)N/N=C/C=C/c2ccccc2[N+](=O)[O-])nc2ccccc21`, the activity change, negative = inhibition was inconclusive: -2.68%. For `Cc1cccc(OCCc2c(C)[nH]c(=S)[nH]c2=O)c1`, the “activity change, negative = inhibition” value was inactive: -3.38%. With `Nc1nc(-c2ccc(Cl)cc2)c(S(=O)(=O)c2ccccc2)s1` the Potency was inconclusive: 22.4 µM [falling, single point]. With `CCOC(=O)/C(C#N)=C/c1ccc(OC)c(OC)c1` the “activity change, negative = inhibition” value was inactive: -0.259%. In the case of `COC(=O)c1ccccc1NC(=O)Nc1cc(C)ccn1`, the activity change, negative = inhibition is reported as inconclusive: 3.12%. In the case of `O=C(O)c1nn(CC(=O)N2CCCCCC2)c(=O)c2ccccc12`, the “activity change, negative = inhibition” value is reported as inactive: 1.28%. In the case of `CCn1c(C(=O)O)c(CC(=O)Nc2cccc(C(F)(F)F)c2)c2ccccc21`, the activity change, negative = inhibition is reported as inconclusive: 10.5%. With `Cc1nc2ccc(-c3nc4cc(N)ccc4o3)cc2[nH]1` the Potency was inconclusive: 29.1 µM [falling, single point]. In the case of `CCOc1cc(C(=O)NCc2ccc3c(c2)OCO3)cc(OCC)c1OCC`, the “activity change, negative = inhibition” value is reported as inactive: -3.9%. For `CCCc1ccc2oc(C(=O)NCCCN3CCOCC3)c(C)c2c1`, the activity change, negative = inhibition was inconclusive: 4.32%. In the case of `C=C(C)COc1ccc(-c2nc(N)ncc2Oc2ccccc2OC)c(O)c1`, the activity change, negative = inhibition is reported as inconclusive: -0.541%. In the case of `Cc1ccc(NC(=O)C2CCCN(C(=O)c3ccc(Cl)cc3)C2)cc1C` (centres undefined), the activity change, negative = inhibition is reported as inconclusive: -0.346%. In the case of `O=C(N/N=C/c1ccco1)c1cc([N+](=O)[O-])cc([N+](=O)[O-])c1`, the “activity change, negative = inhibition” value is reported as inactive: 1.67%. With `CN(C)N=Nc1ccc(-c2cn(Cc3ccccc3)cn2)cc1` the activity change, negative = inhibition was inconclusive: 5.08%. With `Cc1sc(NC(=O)c2ccccc2)c(C(c2ccc(Cl)cc2)N2CCN(CCO)CC2)c1C` (centres undefined) the activity change, negative = inhibition was inconclusive: 8.93%. With `CCc1nnc(NC(=O)c2c(O)c3cccc4c3n(c2=O)CC4)s1` the activity change, negative = inhibition was inconclusive: -21.8%. For `O=C(CSc1ccc(F)cc1)NNC(=O)c1ccccc1Br`, the Potency was inconclusive: 35.5 µM [falling, single point]. In the case of `Nc1nonc1-n1nnc(C(=O)N/N=C/c2ccncc2)c1CSc1ccccc1`, the activity change, negative = inhibition is reported as inconclusive: 4.02%. For `CC(=O)N1CN(Cc2ccccn2)Cc2c1sc1c2CCCC1`, the Potency was inconclusive: 20.6 µM [falling, single point]. With `CC(NC(=O)COC(=O)c1cc(Cl)nc(Cl)c1)c1ccccc1` (centres undefined) the activity change, negative = inhibition was inconclusive: 11.7%. For `O=C(O)C(C(O)c1ccccc1)[n+]1ccccc1` (centres undefined), the “activity change, negative = inhibition” value was inactive: 1.92%. With `Cc1ccc(C2=NN(CCC#N)C(=O)CO2)cc1` the activity change, negative = inhibition was inconclusive: -0.207%. With `Cc1ccc(S(=O)(=O)NC(=NCc2ccccc2)c2ccc(F)cc2)cc1` the activity change, negative = inhibition was inconclusive: -5.31%. For `CC(=O)Nc1ccc(Nc2ncc([N+](=O)[O-])c(Nc3ccc(NC(C)=O)cc3)n2)cc1`, the “activity change, negative = inhibition” value was inactive: 3.95%. For `COc1ccc2c(=O)c3c(=O)n(Cc4ccco4)c(-c4ccccc4)nc3oc2c1`, the activity change, negative = inhibition was inconclusive: 0.599%. With `COc1ccccc1OCc1cc(C(=O)N2CCCC(OCc3cccnc3)C2)no1` (centres undefined) the “activity change, negative = inhibition” value was inactive: 0.852%. For `Cc1ccc(Cl)cc1N1CCN(C(=O)c2noc(C(C)C)c2[N+](=O)[O-])CC1`, the activity change, negative = inhibition was inconclusive: 0.65%. With `O=C(Nc1ccnn1C1CCN(Cc2ccccn2)CC1)c1cccc(F)c1` the “activity change, negative = inhibition” value was inactive: 0.571%. In the case of `Cc1cccnc1NC(=O)Cn1nc(-c2ccccc2)oc1=S`, the Potency is reported as inconclusive: 29.1 µM [rising, single point]. In the case of `COc1cccc(C(=O)N/N=C(/CCC(=O)O)c2ccccc2)c1`, the Potency is reported as inconclusive: 2.06 µM [falling, partial curve]. For `COC(=O)Cn1cnc2c(nnn2-c2ccc(C)cc2)c1=O`, the activity change, negative = inhibition was inconclusive: 13.5%.
